The target of one assay is T1, Arc-mCherry (mouse) (UniProt Q9WV31).
T1 sequence: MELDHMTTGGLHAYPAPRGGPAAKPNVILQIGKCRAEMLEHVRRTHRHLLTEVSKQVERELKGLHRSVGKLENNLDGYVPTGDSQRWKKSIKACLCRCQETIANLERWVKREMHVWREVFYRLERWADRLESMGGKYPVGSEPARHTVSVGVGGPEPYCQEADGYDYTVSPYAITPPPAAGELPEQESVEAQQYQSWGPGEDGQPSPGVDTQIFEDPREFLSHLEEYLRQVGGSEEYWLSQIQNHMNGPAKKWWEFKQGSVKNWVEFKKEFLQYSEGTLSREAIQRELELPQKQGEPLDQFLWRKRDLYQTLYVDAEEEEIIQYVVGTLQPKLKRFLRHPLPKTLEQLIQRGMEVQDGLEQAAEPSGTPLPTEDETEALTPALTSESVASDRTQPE
Put plainly: cross-correlation raster imaging correlation spectroscopy (ccRICS); live co-transfected SH-SY5Y cells in depolarizing buffer (100 mM KCl), 15 min incubation.

By UniProt entry, the sequences of proteins in these tests, tags left out. Where a name states a change or a piece, a line headed by the entry shows the natural chain unless it says otherwise.
UniProt P62993: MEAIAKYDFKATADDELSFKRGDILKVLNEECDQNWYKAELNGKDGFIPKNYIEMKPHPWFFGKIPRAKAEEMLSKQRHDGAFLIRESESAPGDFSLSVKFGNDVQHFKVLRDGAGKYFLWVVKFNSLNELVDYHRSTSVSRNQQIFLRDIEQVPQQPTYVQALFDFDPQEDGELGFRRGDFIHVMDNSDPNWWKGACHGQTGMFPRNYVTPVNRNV
UniProt Q9NRD5: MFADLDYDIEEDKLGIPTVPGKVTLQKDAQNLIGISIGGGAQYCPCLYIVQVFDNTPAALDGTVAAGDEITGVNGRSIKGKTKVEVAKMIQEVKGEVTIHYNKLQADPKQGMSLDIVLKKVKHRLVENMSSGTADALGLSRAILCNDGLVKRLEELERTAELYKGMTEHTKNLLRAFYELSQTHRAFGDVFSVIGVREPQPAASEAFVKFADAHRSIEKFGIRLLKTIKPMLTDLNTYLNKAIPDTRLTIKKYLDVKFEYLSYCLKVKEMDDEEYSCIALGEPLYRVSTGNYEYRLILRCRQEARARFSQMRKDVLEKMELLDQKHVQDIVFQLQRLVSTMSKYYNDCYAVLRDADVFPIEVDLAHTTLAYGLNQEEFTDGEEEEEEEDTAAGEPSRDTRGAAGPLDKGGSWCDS
UniProt Q62083: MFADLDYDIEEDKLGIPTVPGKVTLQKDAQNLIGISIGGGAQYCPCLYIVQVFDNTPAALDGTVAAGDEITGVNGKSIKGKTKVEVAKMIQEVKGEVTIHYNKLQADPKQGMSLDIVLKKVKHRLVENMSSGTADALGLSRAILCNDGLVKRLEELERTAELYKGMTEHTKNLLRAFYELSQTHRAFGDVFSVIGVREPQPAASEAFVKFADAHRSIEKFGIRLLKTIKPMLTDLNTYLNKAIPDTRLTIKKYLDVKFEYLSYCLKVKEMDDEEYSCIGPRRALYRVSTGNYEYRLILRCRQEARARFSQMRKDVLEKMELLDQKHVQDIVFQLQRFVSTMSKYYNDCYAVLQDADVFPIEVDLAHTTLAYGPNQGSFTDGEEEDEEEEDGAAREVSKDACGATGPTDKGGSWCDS

Assay [1] concerns the target T2, GST-Arc (mouse) (UniProt Q9WV31).
T2 sequence: T1 sequence
Put plainly: pull-down; lysate of HEK293 cells transfected with FLAG-PICK1 or FLAG-PICK1B incubated 1 h with GST-Arc or GST coupled to glutathione resin; eluted with 50 mM glutathione; immunoblot; only the target purified. A general note: A western blot detects proteins with antibodies after separation by electrophoresis.

Assay [2] addresses T2, GST-Arc (mouse). Put plainly: pull-down; whole mouse brain lysate incubated with GST or GST-Arc, then bound to glutathione resin; Western blot; only the target purified.
Assay [3] deals with T2, GST-Arc (mouse). Put plainly: pull-down; mouse brain synaptosome lysate with GST-Arc, GST or GST-Grb2 (10 µM) on glutathione resin; Western blot for PICK1; only the target purified.
For a further assay, the target named is GST-Grb2 (UniProt P62993). Described as above.

These results are taken from PMC6168463, “Arc/Arg3.1 has an activity-regulated interaction with PICK1 that results in altered spatial dynamics” (Scientific Reports, 2018).

Results are given in words; binding and its absence hold for the method and conditions named. For some assays here: In cells and extracts the contact can be indirect. Some binding calls cover weakened binding; strength is not graded here. For some assays here: Where a sequence is shown, tags or fusion partners need not be part of it.

On to “EGFP-PICK1-BAR (from UniProt Q9NRD5 140-415) (domain or fragment)”, for which the binding entry with Arc-mCherry (mouse) was “binds”. Turning to “FLAG-PICK1 (full length) (from UniProt Q9NRD5 1-415)”, the binding entry with GST-Arc (mouse) [1] was “binds”. Regarding “PICK1 (endogenous, mouse brain) (from UniProt Q62083 1-416)”, the values for the binding result with GST-Arc (mouse) [2], in the assay with GST-Arc (mouse) [3] and with GST-Grb2 were “binds”, “binds” and “no binding (tested: 10 µM)”, respectively.
